Results are given in words; binding and its absence hold for the method and conditions named. Some entries that bind do so weakly or less than the wild type. Sequences can lack the tags named with a protein.

This test has as its target T1, PhoR from E. coli, bacterial two-hybrid fusion (E. coli) (UniProt P08400).
T1 sequence: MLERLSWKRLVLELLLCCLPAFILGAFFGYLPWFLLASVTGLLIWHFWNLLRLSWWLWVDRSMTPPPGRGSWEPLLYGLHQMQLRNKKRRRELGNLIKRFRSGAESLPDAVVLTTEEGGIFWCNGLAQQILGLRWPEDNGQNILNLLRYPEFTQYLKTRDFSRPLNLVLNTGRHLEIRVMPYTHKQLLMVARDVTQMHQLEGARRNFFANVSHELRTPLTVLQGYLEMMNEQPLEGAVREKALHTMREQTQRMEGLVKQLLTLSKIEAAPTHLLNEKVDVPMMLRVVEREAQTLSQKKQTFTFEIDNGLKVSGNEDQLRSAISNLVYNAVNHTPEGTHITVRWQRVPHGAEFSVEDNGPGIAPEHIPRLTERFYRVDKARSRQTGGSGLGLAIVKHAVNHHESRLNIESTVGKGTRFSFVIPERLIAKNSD
The experiment in a line: two-hybrid; bacterial two-hybrid: T25 and T18 domains of B. pertussis CyaA fused N- or C-terminally; E. coli reporter strain DHM1 spotted on agar plates with X-Gal, blue colonies.

B1: YjiS from E. coli, bacterial two-hybrid fusion (protein, UniProt P39390 1-54)
chain: MEFHENRAKAPFIGLVQLWQAVRRWRRQMQTRRVLQQMSDERLKDIGLRREDVE
Regarding B1, the binding result was “binds”.
